# Where a name gives a salt, the structure may show the parent alone. Some of the results follow. Single values are uncertain here, since repeats match poorly.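 The human kidney-derived cells carry a stably integrated construct of eight TEAD-binding elements driving luciferase, read by luminescence in a drug-repurposing library screen. A compound counts as a hit when its signal is more than five robust Z scores above the plate mean.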
# Tested on: HEK293A TEAD-LUC reporter
# Assay: TEAD-luciferase reporter activity (YAP activation), robust Z score vs plate; higher = stronger YAP/TEAD activation
# Settings: 24 h
Compound,TEAD-luciferase reporter activity (compound concentration: 200 nM),TEAD-luciferase reporter activity (compound concentration: 2 uM),TEAD-luciferase reporter activity (compound concentration: 10 uM)
CCCC(=O)OCOC(=O)C1=C(C)NC(C)=C(C(=O)OC)C1c1cccc(Cl)c1Cl (configuration not stated) [Clevidipine],inactive: -0.492,inactive: 2.25,inactive: 3.16
COC(=O)C(C)NC(=O)Cc1c(C)n(C(=O)c2ccc(Cl)cc2)c2ccc(OC)cc12 (configuration not stated),inactive: 1.08,inactive: 0.211,inactive: 2.45
O=C(Cc1ccc(F)cc1)Nc1ccc2cnn(CCN3CCCC3)c2c1,inactive: -0.85,inactive: -1.44,inactive: -1.74
CCCCCCCCOc1c(O)c2ccc(NC(=O)/C=C/c3cc(OC)c(O)c(OC)c3)cc2n(C)c1=O,inactive: -0.462,inactive: 0.835,inactive: -0.682
O=C(Cc1ccccc1Nc1c(Cl)cccc1Cl)OCCCCO[N+](=O)[O-],inactive: -2.16,inactive: 0.247,inactive: 2.02
O=C1c2ccccc2C(=O)c2c(NCCNCCO)ccc(NCCNCCO)c21 [Ametantrone],–,inactive: 3.25,–
O=C1c2ccccc2C(=O)c2c(NCCNCCO)ccc(NCCNCCO)c21,inactive: -0.898,–,inactive: 0.857
COc1ccc(Cc2cnc(N)nc2N)cc1OC,inactive: -0.906,–,inactive: -1.88
COc1ccc(Cc2cnc(N)nc2N)cc1OC [Diaveridine],–,inactive: -0.378,–
CO[C@@H]1COCC[C@@H]1N[C@@H]1CC[C@@](C(=O)N2CCc3ncc(C(F)(F)F)cc3C2)(C(C)C)C1,inactive: -0.772,inactive: -0.83,inactive: 0.174
COc1ccc(-c2nc(C(=O)N3CCN(C)CC3)sc2-c2ccc(OC)cc2)cc1,inactive: -1.01,inactive: 0.0454,inactive: -0.152
CCCCC1(CCCC)CN(c2ccccc2)c2cc(SC)c(OCC(=O)N[C@@H](C(=O)N[C@@H](CC)C(=O)O)c3ccc(O)cc3)cc2S(=O)(=O)N1,inactive: -0.609,inactive: -0.155,inactive: 0.0233
CC(=O)OCC(=O)[C@@]12OC(C)(C)O[C@@H]1C[C@H]1[C@@H]3C[C@H](F)C4=CC(=O)C=C[C@]4(C)[C@@]3(F)[C@@H](O)C[C@@]12C [fluocinonide],inactive: -0.346,inactive: -0.68,inactive: 0.461
CN1Cc2c(N)cccc2C(c2ccccc2)C1 (configuration not stated) [Nomifensine maleate],inactive: -2.98,inactive: -2.46,inactive: -0.937
CC(C(=O)O)c1ccc2oc(-c3ccc(Cl)cc3)nc2c1 (configuration not stated) [Benoxaprofen],inactive: 0.832,inactive: -2.79,inactive: -4.13
O=C1CC[C@]2(c3ccc(Cl)c(Cl)c3)O[C@H](COc3ccc(Cl)cc3)CN12,inactive: -0.109,inactive: -1.26,inactive: -0.136
Cc1ccc2c(Br)cc(Br)c(OC(=O)c3cccc4ccccc34)c2n1,inactive: -0.511,inactive: -0.436,inactive: 0.653
CSc1nc(Nc2ccccc2)c2cccnc2n1,inactive: 0.765,inactive: 0.335,inactive: -1.33
Cc1cc(C)cc([C@@H]2CCCN2Cc2ccc(Oc3ccc(C(N)=O)cc3F)cc2)c1,inactive: -0.799,inactive: -0.952,inactive: -1.21

# Complete entries from above. Order of values: TEAD-luciferase reporter activity (compound concentration: 200 nM) | TEAD-luciferase reporter activity (compound concentration: 2 uM) | TEAD-luciferase reporter activity (compound concentration: 10 uM)
# CC(=O)OCC(=O)[C@@]12OC(C)(C)O[C@@H]1C[C@H]1[C@@H]3C[C@H](F)C4=CC(=O)C=C[C@]4(C)[C@@]3(F)[C@@H](O)C[C@@]12C [fluocinonide] is listed with inactive: -0.346 | inactive: -0.68 | inactive: 0.461
# CSc1nc(Nc2ccccc2)c2cccnc2n1 is listed with inactive: 0.765 | inactive: 0.335 | inactive: -1.33

# Additional results follow.

Compound,TEAD-luciferase reporter activity (compound concentration: 200 nM),TEAD-luciferase reporter activity (compound concentration: 2 uM),TEAD-luciferase reporter activity (compound concentration: 10 uM)
CCN1CCC(=C2c3ccccc3CCc3ccccc32)C1C (configuration not stated),inactive: -0.541,inactive: -0.853,inactive: -0.84
CCOC(=O)CCC(=O)OC1C(OC2C(C)C(OC3CC(C)(OC)C(O)C(C)O3)C(C)C(=O)OC(CC)C(C)(O)C(O)C(C)C(=O)C(C)CC2(C)O)OC(C)CC1N(C)C (configuration not stated) [Eryped1264-62-6],inactive: -0.0884,–,inactive: 3.46
CCOC(=O)CCC(=O)OC1C(OC2C(C)C(OC3CC(C)(OC)C(O)C(C)O3)C(C)C(=O)OC(CC)C(C)(O)C(O)C(C)C(=O)C(C)CC2(C)O)OC(C)CC1N(C)C (configuration not stated) [Erythromycin ethylsuccinate],–,inactive: 0.343,–
O=C1c2cccc3cc([N+](=O)[O-])cc(c23)C(=O)N1CCN1CCCC1 [Pinafide],inactive: -0.742,inactive: 0.792,inactive: -1.12
CC(=O)NC[C@H]1CN(c2ccc(N3Cc4ccncc4C3)c(F)c2)C(=O)O1,inactive: -0.571,inactive: -1.21,inactive: 2.01
CCN(O)CCc1ccc2c(c1)C(=O)c1ccccc1CO2,inactive: 2.07,inactive: 1.27,inactive: 3.56
COc1c2ccoc2cc2oc(=O)ccc12 [5-Methoxypsoralen],inactive: -0.253,inactive: 0.357,inactive: -0.161
CCCCCCCCCCCCCCCCCCOP(=O)(O)OC1CC[N+](C)(C)CC1 [perifosine],–,–,inactive: 1.1
CCNCc1coc2ccc(S(=O)(=O)N(CC(C)C)C[C@@H](O)[C@H](Cc3ccccc3)NC(=O)OC3CO[C@H]4OCC[C@@H]34)cc12 (some centres not stated),inactive: -0.159,inactive: -0.257,inactive: -1.05
Cn1c(=O)c2c(ncn2CCNCC(O)c2ccc(O)c(O)c2)n(C)c1=O (configuration not stated),inactive: 0.292,inactive: -0.476,inactive: -0.27
CCCCCCCCC(CO)CCCCCC (configuration not stated),inactive: -0.0533,inactive: -1.3,inactive: -0.539
CCOC(=O)C(C)CC(C)C(=O)N1c2ccccc2C[C@H]1C(=O)O (some centres not stated),inactive: -0.888,inactive: 0.774,inactive: 4.19
CCOC(=O)Oc1ccc(/C=C/C=C/C(=O)NCCN2CCC(OC(c3ccccc3)c3ccccc3)CC2)cc1OC,inactive: -0.584,inactive: -0.361,inactive: -0.128
O=C1NC2(CCN(Cc3ccc(C(F)(F)F)cc3)CC2)Oc2ccccc21,inactive: -0.634,–,inactive: 3.7
CC1(CCCc2cc(=O)oc3[nH]c(=O)[nH]c(=O)c23)CC1,inactive: 1.98,inactive: -1.66,inactive: -0.403
OCCN1CCN(CCCN2c3ccccc3Sc3ccc(C(F)(F)F)cc32)CC1,inactive: -0.526,–,inactive: 0.46
"OCCN1CCN(CCCN2c3ccccc3Sc3ccc(C(F)(F)F)cc32)CC1 [fluphenazine hydrochloride, Corridor Pharmaceuticals-1]",–,inactive: -0.41,–
CN1C(=O)C(=C(N)c2ccccc2)C(=O)C=C1c1ccccc1,inactive: -0.0439,inactive: -0.495,inactive: -1.08
CCCCC[C@H](O)/C=C/[C@@H]1[C@H]2C/C(=C/CCCC(=O)O)C[C@H]2C[C@H]1O [Carbacyclin],inactive: -1.66,–,inactive: 0.218

# Only TEAD-luciferase reporter activity (compound concentration: 10 uM), for some of the entries so far:
Compound	TEAD-luciferase reporter activity (compound concentration: 10 uM)
O=C1CC[C@]2(c3ccc(Cl)c(Cl)c3)O[C@H](COc3ccc(Cl)cc3)CN12	inactive: -0.136
Cc1ccc2c(Br)cc(Br)c(OC(=O)c3cccc4ccccc34)c2n1	inactive: 0.653

# Following part

Compound,TEAD-luciferase reporter activity (compound concentration: 200 nM),TEAD-luciferase reporter activity (compound concentration: 2 uM),TEAD-luciferase reporter activity (compound concentration: 10 uM)
CCN(CC)Cc1ccc2cc(COC(=O)Nc3ccc(C(=O)NO)cc3)ccc2c1 [Givinostat hydrochloride],–,active: 21.7,–
CCN(CC)Cc1ccc2cc(COC(=O)Nc3ccc(C(=O)NO)cc3)ccc2c1 [ITF2357 (Givinostat)],active: 10.6,–,active: 34.4
O=C(c1cccc(Cl)c1)N1CCC(n2c(=O)[nH]c3ccccc32)CC1,inactive: -0.657,–,inactive: 1.2
Clc1ccc2c(N3CCN(CCCN4CCN(c5ccnc6cc(Cl)ccc56)CC4)CC3)ccnc2c1 [Piperaquine],inactive: 0.045,–,inactive: 0.56
Nc1nc(=O)n([C@@H]2C=C[C@H](CO)O2)cc1F,inactive: 0.464,inactive: -1.03,inactive: 2.64
O=[N+]([O-])c1ccc(O)c2ncccc12 [Pharmaprojects No. 3064],inactive: -0.267,inactive: -0.932,inactive: 3.14
O=c1[nH]c2ccccc2n1CCCN1CCN(C(c2ccccc2)c2ccccc2)CC1 [oxatomide],inactive: -0.581,inactive: -1.68,inactive: 0.018
CN(C)CCC(O)(c1ccccc1)c1ccccc1Cl (configuration not stated),inactive: 0.903,inactive: -0.433,inactive: 2.42
CC[N+](CC)(CC)CCC(O)(c1ccccc1)C1CCCCC1 (configuration not stated),inactive: -0.763,inactive: -1.04,inactive: -1.81
O=C(C1CCCC1)N1CCC(C(=O)N2CCC(N3CCCC3=O)CC2)CC1,inactive: -0.202,–,inactive: 2.56
"N[C@@H](Cc1ccc(O)c(O)c1)C(=O)O [levodopa, Acorda Therapeutics]",–,inactive: -1.78,–
N[C@@H](Cc1ccc(O)c(O)c1)C(=O)O,inactive: -0.707,–,inactive: -0.037
CCCCc1c(-c2ccccc2F)[nH]c2nccnc12,inactive: -0.948,inactive: -0.909,inactive: -0.9
CN(C)CCC(=O)N1Cc2ccccc2CC2(CCCCN2C)C1 (configuration not stated),inactive: -0.174,–,active: 5.47
"COc1ccc2c(c1OC)C(=O)O[C@@H]2[C@H]1c2c(cc3c(c2OC)OCO3)CCN1C [noscapine, extended-release]",inactive: -2.98,–,inactive: 0.563
COc1ccc2c(c1OC)C(=O)O[C@@H]2[C@H]1c2c(cc3c(c2OC)OCO3)CCN1C [noscapine],–,inactive: -1.45,–
C[C@H](CSC(=O)C(C)(C)C)C(=O)N(CC(=O)O)C1CCCC1,inactive: -2.31,inactive: -0.0978,inactive: -0.0516
COc1cccc2c1c(NS(=O)(=O)c1ccc(Cl)s1)nn2Cc1cccc(CNC(=O)C(C)(C)O)c1,inactive: -1.26,inactive: 2.68,inactive: -0.717
CCOC(=O)N1CCN(c2ncnc3cc(OC)c(OC)cc23)CC1,inactive: 2.85,inactive: -0.639,inactive: -1.65

# From the supplement of paper PMC10735217
